Among the data in publication PMC6011996 are binding values, retold here.

By UniProt entry, the sequences of proteins in these tests, tags left out. Where a name states a change or a piece, a line headed by the entry shows the natural chain unless it says otherwise.
UniProt B7UM95: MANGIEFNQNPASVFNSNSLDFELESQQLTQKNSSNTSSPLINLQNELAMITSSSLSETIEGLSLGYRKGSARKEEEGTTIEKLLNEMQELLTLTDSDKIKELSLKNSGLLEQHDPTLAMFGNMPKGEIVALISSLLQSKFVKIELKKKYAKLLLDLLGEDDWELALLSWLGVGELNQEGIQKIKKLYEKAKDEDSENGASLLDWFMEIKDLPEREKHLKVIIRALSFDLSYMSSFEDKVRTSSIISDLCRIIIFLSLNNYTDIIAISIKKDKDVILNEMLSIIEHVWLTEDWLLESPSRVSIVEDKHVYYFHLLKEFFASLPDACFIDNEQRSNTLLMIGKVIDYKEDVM
UniProt B7UMB2: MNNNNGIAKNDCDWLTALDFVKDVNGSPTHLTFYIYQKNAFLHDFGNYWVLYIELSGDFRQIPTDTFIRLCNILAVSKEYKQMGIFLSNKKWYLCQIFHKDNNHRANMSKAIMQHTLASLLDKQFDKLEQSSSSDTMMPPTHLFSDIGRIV

The experiment concerns the target SepL-3FLAG (enteropathogenic Escherichia coli (EPEC) E2348/69) (UniProt B7UM95). The experiment is described as follows: co-IP.

No constants are given. Whether binding was seen depends on the method and setting. In cells and extracts the contact can be indirect. Binding can be weak; no strength is given.

Regarding SepD (from UniProt B7UMB2), the binding entry is recorded as “binds”.
